{"source": "PubChem BioAssay AID445", "about": "(National Center for Advancing Translational Sciences (NCATS), 2006)", "assay": "IkB Signaling", "conditions": "ABC-DLBCL IkBa-CBG/CBR dual luciferase ratio (green luciferase fused to IkBa over red control in OCI-Ly3 lymphoma cells), 4 h", "method_in_brief": "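Luminescence ratio of IκBα-fused green versus native red beetle luciferase in OCI-Ly3 cells, 4 h post-doxycycline with compound; red signal alone, scaled from basal (0%) to zero light (-100%), flagged nonspecific or cytotoxic effects.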", "key": {"[1]": {"conditions": "measured here: control luc red channel unless noted"}}, "note": "The list shows a part of the results. The main result of the screen is listed elsewhere. These columns were measured beside it and carry no call. Most of these compounds were active or inconclusive in the main read-out, so they are no random draw. Words in brackets tell the shape of the fitted curve; partial curves, single points and poor fits give uncertain potencies.", "data": [{"smiles": "Cc1cccc(NC(=O)c2c(NC(=O)c3ccccc3)sc3c2CCC3)c1", "values": [{"measurement": "AC50", "setting": "[1]", "value": "0.158 µM [falling, full curve]"}]}, {"smiles": "COc1cc(NC(=O)Cc2noc3ccccc23)cc(OC)c1OC", "values": [{"measurement": "AC50", "setting": "[1]", "value": "15.8 µM [falling, partial curve]"}]}, {"smiles": "Cc1cccc(-n2ncc3c(NNC(=O)c4ccccc4Cl)ncnc32)c1", "values": [{"measurement": "AC50", "setting": "[1]", "value": "1 µM [falling, full curve]"}]}, {"smiles": "O=c1[nH]c(C2CCCN(S(=O)(=O)c3ccccc3)C2)nc2c1nnn2Cc1ccccc1Br", "note": "(stereo not given)", "values": [{"measurement": "AC50", "setting": "[1]", "value": "39.8 µM [falling, single point]"}]}, {"smiles": "Cc1ccc(C)c(Nc2nn3c(=O)c4ccc(C(=O)NCc5ccccc5)cc4nc3s2)c1", "values": [{"measurement": "AC50", "setting": "[1]", "value": "10 µM [falling, partial curve]"}]}, {"smiles": "Cc1cccc(C)c1NC(=O)Cn1cc(C(=O)C2CC2)c2ccccc21", "values": [{"measurement": "AC50", "setting": "[1]", "value": "6.31 µM [rising, single point]"}]}, {"smiles": "COc1cccc(C(=O)Nc2nnc(S(=O)(=O)N3CCCc4ccccc43)s2)c1", "values": [{"measurement": "AC50", "setting": "[1]", "value": "39.8 µM [falling, single point]"}]}, {"smiles": "CCS(=O)(=O)NCCc1csc2nc(-c3ccc(OC)cc3)nn12", "values": [{"measurement": "AC50", "setting": "[1]", "value": "12.6 µM [rising, partial curve]"}]}, {"smiles": "Cc1noc(C)c1C(=O)Nc1nc(C23CC4CC(CC(C4)C2)C3)cs1", "values": [{"measurement": "AC50", "setting": "[1]", "value": "3.16 µM [falling, single point]"}]}, {"smiles": "Cc1ccc(C)c(CN2C(=O)c3ccccc3S(=O)c3ccc(C(=O)N4CCCCC4)cc32)c1", "note": "(stereo not given)", "values": [{"measurement": "AC50", "setting": "[1]", "value": "20 µM [falling, partial curve]"}]}, {"smiles": "O=C(Nc1ccc(F)cc1F)C1CCN(C(=O)c2cnn(-c3ccccc3)c2-n2cccc2)CC1", "values": [{"measurement": "AC50", "setting": "[1]", "value": "25.1 µM [falling, single point]"}]}, {"smiles": "CCN1/C(=C\\C(C)=O)Sc2ccc(OC)cc21", "values": [{"measurement": "AC50", "setting": "[1]", "value": "15.8 µM [falling, single point]"}]}, {"smiles": "Oc1ccc(C(c2nnnn2C2CCCC2)N2CCc3ccccc3C2)cc1", "note": "(stereo not given)", "values": [{"measurement": "AC50", "setting": "[1]", "value": "25.1 µM [falling, partial curve]"}]}, {"smiles": "Cn1cccc1-c1cc2n(n1)CCC(=O)N2CCCC(=O)NCc1cccc(Cl)c1", "values": [{"measurement": "AC50", "setting": "[1]", "value": "10 µM [falling, partial curve, poor fit]"}]}, {"smiles": "COc1ccc2c(c1)c(CC(=O)Nc1c(C)cccc1C)c(C)n2C(=O)c1ccc(Cl)cc1", "values": [{"measurement": "AC50", "setting": "[1]", "value": "10 µM [falling, full curve]"}]}, {"smiles": "CCn1c(SCC(=O)Nc2ccccc2N2CCCCC2)nc2c1c(=O)n(C)c(=O)n2C", "values": [{"measurement": "AC50", "setting": "[1]", "value": "25.1 µM [falling, partial curve]"}]}, {"smiles": "Cc1cc(C)cc(NC(=O)CCn2cnc3ccccc3c2=O)c1", "values": [{"measurement": "AC50", "setting": "[1]", "value": "15.8 µM [rising, partial curve, poor fit]"}]}, {"smiles": "CCOc1ccccc1NC(=O)Cn1c(=O)n(-c2ccc(C)cc2)c(=O)c2c1cnn2C", "values": [{"measurement": "AC50", "setting": "[1]", "value": "0.0251 µM [falling, full curve]"}]}, {"smiles": "CCOc1ccc(OCc2ccc(C(=O)N3CCCC3)o2)cc1", "values": [{"measurement": "AC50", "setting": "[1]", "value": "15.8 µM [falling, partial curve]"}]}, {"smiles": "COc1ccc(NC(=O)c2ccc(NC(=O)CCS(=O)(=O)c3cccs3)cc2)cc1Cl", "values": [{"measurement": "AC50", "setting": "[1]", "value": "10 µM [falling, partial curve]"}]}, {"smiles": "Cc1ccc(-n2nnnc2SCC(=O)NCCc2ccccc2)cc1C", "values": [{"measurement": "AC50", "setting": "[1]", "value": "20 µM [falling, partial curve]"}]}, {"smiles": "CSCCC(NC(=O)c1ccccc1)c1nc(-c2ccccc2)no1", "note": "(stereo not given)", "values": [{"measurement": "AC50", "setting": "[1]", "value": "15.8 µM [falling, partial curve]"}]}, {"smiles": "Cc1ccc(S(=O)(=O)NCC(=O)N(CC(=O)NCC2CCCO2)C2CCCC2)cc1", "note": "(stereo not given)", "values": [{"measurement": "AC50", "setting": "[1]", "value": "6.31 µM [rising, single point] [measured here: IkB-luc green channel]"}]}, {"smiles": "O=C(Nc1cccc(S(=O)(=O)C(F)F)c1)c1ccc(Cl)c(S(=O)(=O)N2CCOCC2)c1", "values": [{"measurement": "AC50", "setting": "measured here: IkB-luc green channel", "value": "39.8 µM [rising, single point]"}, {"measurement": "AC50", "setting": "measured here: control luc red channel", "value": "6.31 µM [falling, single point]"}]}, {"smiles": "COc1ccc(NC(=O)Nc2nnc(N3CCCC3)s2)cc1", "values": [{"measurement": "AC50", "setting": "[1]", "value": "20 µM [falling, partial curve]"}]}, {"smiles": "CCOC(=O)c1[nH]c(C)c(C(=O)N2CCN(c3cccc(Cl)c3)CC2)c1C", "values": [{"measurement": "AC50", "setting": "[1]", "value": "15.8 µM [falling, partial curve]"}]}, {"smiles": "Cc1ccc2c(=O)cc(C(=O)N(Cc3ccc(C(C)(C)C)cc3)C3CCS(=O)(=O)C3)oc2c1", "note": "(stereo not given)", "values": [{"measurement": "AC50", "setting": "[1]", "value": "6.31 µM [falling, partial curve]"}]}, {"smiles": "Cc1ccc(NC(=O)c2c(C)oc3ccc(O)c(CN4CCOCC4)c23)cc1", "values": [{"measurement": "AC50", "setting": "[1]", "value": "12.6 µM [falling, partial curve]"}]}, {"smiles": "Cc1ccc(-n2ncc(C(=O)NCc3ccc4c(c3)OCO4)c2C2CCN(C(=O)OC(C)(C)C)CC2)c(C)c1", "values": [{"measurement": "AC50", "setting": "[1]", "value": "31.6 µM [falling, single point]"}]}, {"smiles": "CCc1nnc(NC(=O)CSc2nnc(-c3ccccc3O)n2-c2ccc(C)cc2C)s1", "values": [{"measurement": "AC50", "setting": "[1]", "value": "15.8 µM [falling, partial curve]"}]}, {"smiles": "COC(=O)c1ccc(NC(=O)c2cc(S(=O)(=O)N3CCOCC3)cn2C)cc1", "values": [{"measurement": "AC50", "setting": "[1]", "value": "12.6 µM [falling, single point]"}]}, {"smiles": "COc1ccc(Cn2c(=O)c3oc4ccccc4c3n(CC(=O)Nc3c(C)cccc3C)c2=O)cc1", "values": [{"measurement": "AC50", "setting": "[1]", "value": "39.8 µM [falling, single point]"}]}, {"smiles": "Cc1ccccc1Cn1c2ccccc2c2cnn(CC(=O)NC3CCCCCC3)c(=O)c21", "values": [{"measurement": "AC50", "setting": "[1]", "value": "5.01 µM [falling, partial curve]"}]}, {"smiles": "CN1CCN(C(=O)c2ccc3c(c2)N(Cc2ccc(C(F)(F)F)cc2)C(=O)c2ccccc2S3)CC1", "values": [{"measurement": "AC50", "setting": "[1]", "value": "20 µM [falling, partial curve]"}]}, {"smiles": "CN(CC(=O)Nc1cccc(F)c1)S(=O)(=O)c1ccc2c(c1)n(C)c(=O)c(=O)n2C", "values": [{"measurement": "AC50", "setting": "[1]", "value": "0.2 µM [rising, full curve, poor fit]"}]}, {"smiles": "CC(=O)c1cccc(NC(=O)CSc2ncc3c(n2)-c2cc(Cl)ccc2N(Cc2ccccc2)S3(=O)=O)c1", "values": [{"measurement": "AC50", "setting": "[1]", "value": "10 µM [falling, partial curve]"}]}, {"smiles": "COc1ccc(S(=O)(=O)NCc2nc(-c3ccccc3)no2)cc1", "values": [{"measurement": "AC50", "setting": "[1]", "value": "5.01 µM [falling, partial curve]"}]}, {"smiles": "O=C(CN(C(=O)CSc1nnc(COc2ccccc2)o1)c1ccc(F)cc1)NC1CCCC1", "values": [{"measurement": "AC50", "setting": "[1]", "value": "15.8 µM [falling, partial curve]"}]}, {"smiles": "Oc1ccc(-c2nc3ccc(Cl)cn3c2Nc2ccc(Cl)cc2)cc1", "values": [{"measurement": "AC50", "setting": "[1]", "value": "12.6 µM [falling, partial curve]"}]}]}
